The source of these data is paper PMC9098222.

The chains behind the UniProt entries cited, without tags or fusion partners. Residues count along the entry.
UniProt P55854, residues 1-92: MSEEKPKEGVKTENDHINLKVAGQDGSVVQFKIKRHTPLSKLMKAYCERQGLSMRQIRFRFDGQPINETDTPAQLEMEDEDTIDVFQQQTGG
UniProt O75348: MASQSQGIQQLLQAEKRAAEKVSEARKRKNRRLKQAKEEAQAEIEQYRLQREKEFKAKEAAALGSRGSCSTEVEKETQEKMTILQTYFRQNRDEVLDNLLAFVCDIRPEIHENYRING
UniProt Q9NWH9: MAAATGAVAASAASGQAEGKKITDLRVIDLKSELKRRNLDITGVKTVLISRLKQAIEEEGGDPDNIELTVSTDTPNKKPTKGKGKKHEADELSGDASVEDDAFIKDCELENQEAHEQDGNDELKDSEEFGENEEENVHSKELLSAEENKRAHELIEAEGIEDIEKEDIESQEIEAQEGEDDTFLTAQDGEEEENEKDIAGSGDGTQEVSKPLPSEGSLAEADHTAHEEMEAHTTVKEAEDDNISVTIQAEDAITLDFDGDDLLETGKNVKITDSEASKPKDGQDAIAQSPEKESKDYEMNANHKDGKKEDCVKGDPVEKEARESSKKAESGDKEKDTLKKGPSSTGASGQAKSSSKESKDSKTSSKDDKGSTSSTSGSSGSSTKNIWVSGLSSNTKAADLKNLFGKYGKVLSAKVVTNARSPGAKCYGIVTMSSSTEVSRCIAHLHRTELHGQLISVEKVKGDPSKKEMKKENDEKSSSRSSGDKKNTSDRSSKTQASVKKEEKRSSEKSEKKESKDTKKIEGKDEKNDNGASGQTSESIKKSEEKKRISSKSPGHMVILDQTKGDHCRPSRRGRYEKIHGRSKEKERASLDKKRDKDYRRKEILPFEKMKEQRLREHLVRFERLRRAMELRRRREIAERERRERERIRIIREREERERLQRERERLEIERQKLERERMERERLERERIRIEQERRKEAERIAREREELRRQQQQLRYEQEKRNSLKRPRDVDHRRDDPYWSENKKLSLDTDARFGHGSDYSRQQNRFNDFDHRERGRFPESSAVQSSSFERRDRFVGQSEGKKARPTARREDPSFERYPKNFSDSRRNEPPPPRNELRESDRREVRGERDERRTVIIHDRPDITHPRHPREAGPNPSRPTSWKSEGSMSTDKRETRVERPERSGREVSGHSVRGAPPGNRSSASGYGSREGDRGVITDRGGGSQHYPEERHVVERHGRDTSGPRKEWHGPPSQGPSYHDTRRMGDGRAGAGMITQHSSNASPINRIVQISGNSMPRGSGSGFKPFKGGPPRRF
UniProt A2AJT9: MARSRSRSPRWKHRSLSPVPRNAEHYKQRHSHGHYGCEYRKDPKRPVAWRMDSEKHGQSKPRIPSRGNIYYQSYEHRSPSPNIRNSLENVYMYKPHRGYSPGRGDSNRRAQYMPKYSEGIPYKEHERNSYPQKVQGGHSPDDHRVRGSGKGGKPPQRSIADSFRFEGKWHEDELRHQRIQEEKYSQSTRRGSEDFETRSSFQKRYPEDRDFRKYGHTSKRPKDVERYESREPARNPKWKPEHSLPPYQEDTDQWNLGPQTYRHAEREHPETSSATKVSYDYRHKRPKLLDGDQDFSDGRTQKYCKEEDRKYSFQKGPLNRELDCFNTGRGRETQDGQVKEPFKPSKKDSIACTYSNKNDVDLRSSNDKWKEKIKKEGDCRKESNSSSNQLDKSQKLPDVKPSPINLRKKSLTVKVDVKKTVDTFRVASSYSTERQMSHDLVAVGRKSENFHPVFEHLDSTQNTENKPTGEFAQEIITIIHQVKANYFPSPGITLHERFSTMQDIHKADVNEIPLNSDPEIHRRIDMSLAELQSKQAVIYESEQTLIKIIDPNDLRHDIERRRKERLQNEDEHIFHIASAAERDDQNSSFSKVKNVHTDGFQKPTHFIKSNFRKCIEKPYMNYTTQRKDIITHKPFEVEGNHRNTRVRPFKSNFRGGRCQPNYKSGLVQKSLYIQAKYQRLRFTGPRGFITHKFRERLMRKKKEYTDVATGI

The labels stand for the following.
T1: IRS4 (WT)-PafA (human) (UniProt O14654)
T1 sequence: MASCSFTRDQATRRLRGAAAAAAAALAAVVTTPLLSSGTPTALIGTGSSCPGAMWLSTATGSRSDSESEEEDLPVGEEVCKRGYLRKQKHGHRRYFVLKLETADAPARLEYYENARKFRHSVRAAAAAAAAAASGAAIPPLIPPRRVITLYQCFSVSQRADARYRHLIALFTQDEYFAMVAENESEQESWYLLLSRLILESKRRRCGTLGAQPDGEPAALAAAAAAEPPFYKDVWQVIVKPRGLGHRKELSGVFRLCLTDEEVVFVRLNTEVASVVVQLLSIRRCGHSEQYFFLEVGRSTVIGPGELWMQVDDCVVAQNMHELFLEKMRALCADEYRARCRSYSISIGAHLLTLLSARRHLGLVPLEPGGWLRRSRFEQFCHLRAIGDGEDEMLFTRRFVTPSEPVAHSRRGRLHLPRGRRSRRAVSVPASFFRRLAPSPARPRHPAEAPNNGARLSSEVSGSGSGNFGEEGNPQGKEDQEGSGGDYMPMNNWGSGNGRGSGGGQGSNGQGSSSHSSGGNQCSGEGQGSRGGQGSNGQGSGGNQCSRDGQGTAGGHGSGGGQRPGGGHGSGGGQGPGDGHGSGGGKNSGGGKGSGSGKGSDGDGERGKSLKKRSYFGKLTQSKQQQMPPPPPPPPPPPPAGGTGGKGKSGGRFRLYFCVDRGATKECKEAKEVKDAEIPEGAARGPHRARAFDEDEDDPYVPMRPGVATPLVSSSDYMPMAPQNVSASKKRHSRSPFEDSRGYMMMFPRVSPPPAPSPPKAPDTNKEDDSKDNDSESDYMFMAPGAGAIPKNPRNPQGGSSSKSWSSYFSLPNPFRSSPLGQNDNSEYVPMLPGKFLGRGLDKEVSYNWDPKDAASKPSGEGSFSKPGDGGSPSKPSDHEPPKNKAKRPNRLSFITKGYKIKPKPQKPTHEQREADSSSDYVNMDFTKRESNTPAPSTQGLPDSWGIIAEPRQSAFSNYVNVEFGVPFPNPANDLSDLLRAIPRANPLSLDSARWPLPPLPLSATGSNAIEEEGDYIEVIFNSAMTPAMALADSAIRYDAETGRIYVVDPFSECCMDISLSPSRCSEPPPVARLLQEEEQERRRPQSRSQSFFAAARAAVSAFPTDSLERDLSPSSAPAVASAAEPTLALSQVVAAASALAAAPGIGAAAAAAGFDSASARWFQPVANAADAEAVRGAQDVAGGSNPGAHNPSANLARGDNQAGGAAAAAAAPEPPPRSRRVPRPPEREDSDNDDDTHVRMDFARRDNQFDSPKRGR

B1: C18orf25 (protein, UniProt Q96B23 1-404)
chain: MKMEEAVGKVEELIESEAPPKASEQETAKEEDGSVELESQVQKDGVADSTVISSMPCLLMELRRDSSESQLASTESDKPTTGRVYESDSSNHCMLSPSSSGHLADSDTLSSAEENEPSQAETAVEGDPSGVSGATVGRKSRRSRSESETSTMAAKKNRQSSDKQNGRVAKVKGHRSQKHKERIRLLRQKREAAARKKYNLLQDSSTSDSDLTCDSSTSSSDDDEEVSGSSKTITAEIPDGPPVVAHYDMSDTNSDPEVVNVDNLLAAAVVQEHSNSVGGQDTGATWRTSGLLEELNAEAGHLDPGFLASDKTSAGNAPLNEEINIASSDSEVEIVGVQEHARCVHPRGGVIQSVSSWKHGSGTQYVSTRQTQSWTAVTPQQTWASPAEVVDLTLDEDSRRKYLL

Results are given in words; binding and its absence hold for the method and conditions named. Binding seen in cells or lysates may run through a third protein. Here binding means that the protein was enriched with, or labelled near, the bait; the list need not be complete.

This assay concerns the target T1, IRS4 (WT)-PafA (human). Briefly: proximity labelling; PUP-IT: IRS4 (WT)-PafA or IRS4 (YF)-PafA stably expressed in iPup OVCAR-5 cells, doxycycline 2 μg/ml and biotin 4 μM for 24 hr, tagged proteins identified by mass spectrometry, triplicates, LFQ intensity of WT against YF mutants.
For SUMO3 (from UniProt P55854 1-92), the binding entry is on record as “binds”. Next, ATP6V1G1 (from UniProt O75348 1-118): “binds”; SLTM (from UniProt Q9NWH9 1-1034): “binds”.

For the molecule CXorf23 (from UniProt A2AJT9 1-711), the binding entry is recorded as “binds”.

Take B1: the binding result was “binds”.
